Test results reported in PMC8860602.

Protein sequences, listed by entry. Tags and fused reporters are not part of them. Lines headed by an entry give the natural chain unless they say otherwise; changes in a name come on top.
UniProt Q12888: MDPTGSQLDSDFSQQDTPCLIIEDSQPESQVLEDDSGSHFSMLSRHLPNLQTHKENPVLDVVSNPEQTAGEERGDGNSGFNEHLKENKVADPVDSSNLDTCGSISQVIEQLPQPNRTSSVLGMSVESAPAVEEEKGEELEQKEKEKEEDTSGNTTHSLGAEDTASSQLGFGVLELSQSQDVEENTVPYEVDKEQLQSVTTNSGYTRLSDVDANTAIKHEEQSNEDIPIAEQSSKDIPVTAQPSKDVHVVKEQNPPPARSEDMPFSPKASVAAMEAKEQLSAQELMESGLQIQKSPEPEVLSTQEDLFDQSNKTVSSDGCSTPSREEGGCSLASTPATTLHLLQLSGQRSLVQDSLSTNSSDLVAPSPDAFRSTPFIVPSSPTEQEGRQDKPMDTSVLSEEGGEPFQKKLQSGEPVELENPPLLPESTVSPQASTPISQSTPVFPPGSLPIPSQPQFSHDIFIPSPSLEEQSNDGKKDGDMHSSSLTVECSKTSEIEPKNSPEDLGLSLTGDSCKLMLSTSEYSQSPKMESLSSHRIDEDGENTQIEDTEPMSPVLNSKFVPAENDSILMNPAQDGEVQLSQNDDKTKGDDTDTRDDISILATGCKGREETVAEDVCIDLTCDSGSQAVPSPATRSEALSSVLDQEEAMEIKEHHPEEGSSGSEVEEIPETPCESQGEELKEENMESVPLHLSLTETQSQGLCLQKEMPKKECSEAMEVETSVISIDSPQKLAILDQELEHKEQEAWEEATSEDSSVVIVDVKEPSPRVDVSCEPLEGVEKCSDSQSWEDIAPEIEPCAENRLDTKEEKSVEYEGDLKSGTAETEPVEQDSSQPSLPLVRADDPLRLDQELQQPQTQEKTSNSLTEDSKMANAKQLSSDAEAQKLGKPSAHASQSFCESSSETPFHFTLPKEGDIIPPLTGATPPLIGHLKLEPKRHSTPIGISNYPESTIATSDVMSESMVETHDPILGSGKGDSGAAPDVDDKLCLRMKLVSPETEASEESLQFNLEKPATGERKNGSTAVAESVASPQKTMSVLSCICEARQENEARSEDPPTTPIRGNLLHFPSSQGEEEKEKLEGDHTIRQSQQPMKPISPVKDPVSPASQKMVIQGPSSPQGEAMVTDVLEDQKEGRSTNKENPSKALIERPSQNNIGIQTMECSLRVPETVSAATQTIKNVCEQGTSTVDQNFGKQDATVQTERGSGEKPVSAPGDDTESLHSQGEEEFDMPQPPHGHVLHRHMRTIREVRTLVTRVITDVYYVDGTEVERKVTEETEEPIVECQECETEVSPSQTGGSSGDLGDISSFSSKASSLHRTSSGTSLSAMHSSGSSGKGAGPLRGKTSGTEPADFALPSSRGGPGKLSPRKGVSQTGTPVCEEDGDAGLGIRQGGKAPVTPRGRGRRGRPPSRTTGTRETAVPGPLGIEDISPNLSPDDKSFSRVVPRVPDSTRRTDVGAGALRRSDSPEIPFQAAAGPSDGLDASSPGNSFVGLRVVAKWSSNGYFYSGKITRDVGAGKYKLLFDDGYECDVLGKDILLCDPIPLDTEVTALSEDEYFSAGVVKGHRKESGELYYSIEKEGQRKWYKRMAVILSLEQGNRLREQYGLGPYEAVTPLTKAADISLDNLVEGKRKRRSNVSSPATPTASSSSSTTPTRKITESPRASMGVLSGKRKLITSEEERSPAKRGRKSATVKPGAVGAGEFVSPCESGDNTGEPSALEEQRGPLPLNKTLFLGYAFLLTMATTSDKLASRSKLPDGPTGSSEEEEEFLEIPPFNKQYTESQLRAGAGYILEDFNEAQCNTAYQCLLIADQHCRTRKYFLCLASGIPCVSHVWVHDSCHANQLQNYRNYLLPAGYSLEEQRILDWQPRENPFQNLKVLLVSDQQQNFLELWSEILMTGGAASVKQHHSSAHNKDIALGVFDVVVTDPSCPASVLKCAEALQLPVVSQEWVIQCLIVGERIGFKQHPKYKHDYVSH

Legend:
[1] = biological target: HA-53BP1-H3 (deletion mutant of 53BP1-N, 101–200) (human) (UniProt Q12888); assay: co-IP; HA-tagged 53BP1 constructs and GFP-tagged ACLY constructs co-transfected in HEK293T cells; RIPA buffer, Protein G Sepharose, 4 °C overnight; western blot
[2] = biological target: HA-53BP1-H6 (deletion mutant of 53BP1-N, 401–500) (human) (UniProt Q12888); assay: as above

- binding [1]: no binding
- binding [2]: no binding
Substance: GFP-ACLY (full length) (from UniProt P53396-1 1-1101) (enzyme)

No constants are given. Whether binding was seen depends on the method and setting. In cells and extracts the contact can be indirect.
